For the assay, the target named is recombinant Oct1 DNA binding domain, C-terminally Twinstrep-tagged. The assay can be described thus: native gel or EMSA. (Mobility shift assays separate free from complexed probe on a gel.)

The results in this text go back to publication doi:10.1101/2025.10.22.683978.

These are yes or no findings as the source states them, for the method shown. Binding calls can cover weak binding; strength is not graded here. Where a sequence is shown, tags or fusion partners need not be part of it.

B1: recombinant full-length OCA-B with a C-terminal FLAG tag (protein, UniProt Q16633 1-256)
chain: MLWQKPTAPEQAPAPARPYQGVRVKEPVKELLRRKRGHASSGAAPAPTAVVLPHQPLATYTTVGPSCLDMEGSVSAVTEEAALCAGWLSQPTPATLQPLAPWTPYTEYVPHEAVSCPYSADMYVQPVCPSYTVVGPSSVLTYASPPLITNVTTRSSATPAVGPPLEGPEHQAPLTYFPWPQPLSTLPTSTLQYQPPAPALPGPQFVQLPISIPEPVLQDMEDPRRAASSLTIDKLLLEEEDSDAYALNHTLSVEGF
For the molecule B1, the binding entry is given as “binds”.
